These are yes or no findings as the source states them, for the method shown. Binding seen in cells or lysates may run through a third protein. Some entries that bind do so weakly or less than the wild type.
Target: T1, B7-H3 (human (endogenous in MGC-803 and MKN-45)) (UniProt Q5ZPR3)
T1 sequence: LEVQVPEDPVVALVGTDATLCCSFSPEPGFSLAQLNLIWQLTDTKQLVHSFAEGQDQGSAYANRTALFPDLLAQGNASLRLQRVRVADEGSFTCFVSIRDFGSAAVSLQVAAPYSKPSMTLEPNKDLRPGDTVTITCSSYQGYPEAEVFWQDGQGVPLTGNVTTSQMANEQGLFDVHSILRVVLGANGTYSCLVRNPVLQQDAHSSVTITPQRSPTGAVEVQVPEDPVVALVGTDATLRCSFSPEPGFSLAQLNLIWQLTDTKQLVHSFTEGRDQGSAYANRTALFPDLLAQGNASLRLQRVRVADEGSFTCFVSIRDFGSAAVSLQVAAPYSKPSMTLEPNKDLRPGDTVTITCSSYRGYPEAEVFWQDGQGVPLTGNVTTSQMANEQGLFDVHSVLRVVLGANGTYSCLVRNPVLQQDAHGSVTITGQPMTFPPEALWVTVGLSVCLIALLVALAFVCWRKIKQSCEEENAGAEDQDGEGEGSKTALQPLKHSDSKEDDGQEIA
Test: co-IP; lysates of MGC-803 and MKN-45 cells (IP lysis buffer), IgG and Protein A+G agarose; Western blot with anti-B7-H3 and anti-FN antibodies

Protein sequences, listed by entry. Tags and fused reporters are not part of them. Residues count along the entry.
UniProt P02751, residues 32-2477: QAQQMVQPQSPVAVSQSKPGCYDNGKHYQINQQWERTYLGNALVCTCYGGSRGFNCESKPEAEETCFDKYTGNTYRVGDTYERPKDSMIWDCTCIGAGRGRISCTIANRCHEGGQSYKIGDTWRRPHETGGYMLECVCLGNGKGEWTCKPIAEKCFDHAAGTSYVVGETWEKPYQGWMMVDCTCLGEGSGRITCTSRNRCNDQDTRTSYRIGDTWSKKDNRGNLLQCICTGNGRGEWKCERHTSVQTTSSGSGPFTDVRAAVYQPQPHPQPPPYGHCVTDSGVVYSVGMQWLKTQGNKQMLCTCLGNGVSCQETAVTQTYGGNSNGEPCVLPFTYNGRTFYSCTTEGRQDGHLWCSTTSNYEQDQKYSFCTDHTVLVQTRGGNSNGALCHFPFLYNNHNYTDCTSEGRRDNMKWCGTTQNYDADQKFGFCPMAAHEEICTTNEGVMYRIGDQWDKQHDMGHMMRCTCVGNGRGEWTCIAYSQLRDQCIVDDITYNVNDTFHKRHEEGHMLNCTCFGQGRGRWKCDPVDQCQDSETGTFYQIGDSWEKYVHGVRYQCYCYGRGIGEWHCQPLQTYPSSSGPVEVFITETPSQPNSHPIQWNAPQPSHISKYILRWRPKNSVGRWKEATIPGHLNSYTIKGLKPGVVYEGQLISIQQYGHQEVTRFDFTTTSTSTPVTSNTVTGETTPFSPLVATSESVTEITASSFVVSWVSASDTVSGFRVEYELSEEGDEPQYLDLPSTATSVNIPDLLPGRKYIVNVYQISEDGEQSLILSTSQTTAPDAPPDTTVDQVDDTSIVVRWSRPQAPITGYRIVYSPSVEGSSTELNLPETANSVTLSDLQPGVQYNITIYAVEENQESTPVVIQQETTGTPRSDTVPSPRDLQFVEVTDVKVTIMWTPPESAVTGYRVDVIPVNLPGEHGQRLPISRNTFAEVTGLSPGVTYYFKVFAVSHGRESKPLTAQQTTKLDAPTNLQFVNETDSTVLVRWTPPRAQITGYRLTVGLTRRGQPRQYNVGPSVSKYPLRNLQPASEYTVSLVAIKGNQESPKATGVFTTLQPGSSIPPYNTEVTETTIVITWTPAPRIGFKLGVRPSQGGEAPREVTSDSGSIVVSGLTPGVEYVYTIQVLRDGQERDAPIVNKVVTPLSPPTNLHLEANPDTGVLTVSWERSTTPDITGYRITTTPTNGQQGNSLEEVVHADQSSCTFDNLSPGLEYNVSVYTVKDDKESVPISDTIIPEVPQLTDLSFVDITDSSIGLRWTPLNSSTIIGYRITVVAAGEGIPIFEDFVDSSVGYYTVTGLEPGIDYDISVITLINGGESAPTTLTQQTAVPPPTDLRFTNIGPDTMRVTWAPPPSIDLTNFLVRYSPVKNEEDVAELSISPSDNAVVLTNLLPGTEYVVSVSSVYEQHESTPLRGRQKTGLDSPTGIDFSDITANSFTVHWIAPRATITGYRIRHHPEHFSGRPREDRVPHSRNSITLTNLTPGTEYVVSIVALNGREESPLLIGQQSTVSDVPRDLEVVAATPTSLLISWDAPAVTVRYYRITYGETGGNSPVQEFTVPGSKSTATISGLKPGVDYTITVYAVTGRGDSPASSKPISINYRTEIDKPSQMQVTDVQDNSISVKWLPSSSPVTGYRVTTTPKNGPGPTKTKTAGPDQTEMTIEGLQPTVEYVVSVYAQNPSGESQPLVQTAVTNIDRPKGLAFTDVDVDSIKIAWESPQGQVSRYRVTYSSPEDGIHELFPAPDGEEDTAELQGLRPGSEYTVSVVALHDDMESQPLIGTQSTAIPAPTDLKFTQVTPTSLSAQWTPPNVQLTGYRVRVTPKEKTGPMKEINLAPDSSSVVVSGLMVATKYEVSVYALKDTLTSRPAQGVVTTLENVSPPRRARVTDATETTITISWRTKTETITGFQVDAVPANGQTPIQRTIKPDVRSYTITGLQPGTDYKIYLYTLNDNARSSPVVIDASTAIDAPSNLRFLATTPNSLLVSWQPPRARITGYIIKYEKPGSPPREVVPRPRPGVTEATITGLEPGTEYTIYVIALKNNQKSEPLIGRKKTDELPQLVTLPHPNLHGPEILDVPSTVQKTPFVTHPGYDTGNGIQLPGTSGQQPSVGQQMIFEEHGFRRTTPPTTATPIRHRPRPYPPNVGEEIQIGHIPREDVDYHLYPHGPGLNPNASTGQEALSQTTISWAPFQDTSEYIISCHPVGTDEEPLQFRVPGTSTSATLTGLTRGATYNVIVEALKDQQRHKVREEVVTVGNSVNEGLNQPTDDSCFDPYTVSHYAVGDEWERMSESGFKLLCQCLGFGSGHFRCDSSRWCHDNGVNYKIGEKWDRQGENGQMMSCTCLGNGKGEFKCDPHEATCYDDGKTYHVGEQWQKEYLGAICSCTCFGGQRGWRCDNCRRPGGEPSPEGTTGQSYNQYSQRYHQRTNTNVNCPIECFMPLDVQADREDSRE

“Fibronectin (from UniProt P02751 32-2477)” was tested, and the binding was “binds”.

From paper PMC8734419
